Source: article PMC3472974, “The Bite of the Honeybee: 2-Heptanone Secreted from Honeybee Mandibles during a Bite Acts as a Local Anaesthetic in Insects and Mammals” (PLoS ONE, 2012)

Legend:
[1] = test system: rat; conditions: oral rat; no reference given; cited from earlier work
[2] = test system: isolated rat sciatic nerve
Description: The ex vivo studies used both male and female rats weighing between 230 and 250 g. Animals were sacrificed using light anaesthesia with CO2 and cervical dislocation. The sciatic nerve of the rat, consisting of 27,000 sciatic nerve fibres, was isolated in a three-chamber recording bath (Fig. 5b). The sciatic nerves were dissected from the spinal cord to the knee, immersed in oxygenated (O2, 100%) saline solution and cleaned. The composition of the saline was (in mmoles/L): 136 NaCl, 11 glucose, 4.7 KCl, 2.4 CaCl2, 1.1 MgCl2, 1 NaHCO3, 10 HEPES, pH = 7.2). All experiments were performed at a constant temperature, 26.0±1.0°C. […] The nCAP (Fig. 5a) was generated by stimulating (1 Hz) the part of the nerve in the stimulating chamber and was recorded in the recording chamber every second using standard electrophysiological methods. The nCAP was monitored throughout the experiment as an indication of the vitality of the nerve fibres in the recording bath. […] Then, recovery of the nCAP in normal stagnant saline was monitored for 24 h. […]
For further data analysis, the amplitude of the nCAPs, estimated from baseline to peak (Fig. 5), were measured at a specific time (every 1.0 s, 1.0 min or 1.0 h) and were expressed as a percentage of the amplitude of the nCAP at t = 0 (which was considered to be 100%). […] Data were analyzed by one-way ANOVA and Bonferroni’s post hoc tests, when required. […]

For `CCN(CC)CC(=O)Nc1c(C)cccc1C` [lidocaine], the “acute LD50” value [1] is listed as 313 mg/kg and the “neurotoxic action in 24 h monitoring of nerve vitality” value [2] is listed as “no neurotoxic action”.
